Test results reported in patent publication US20060149521A1 (University of California, published 2006).
Changes are numbered by the printed parent chain. Names may count otherwise. No constants are given. Whether binding was seen depends on the method and setting. For some assays here: Binding seen in cells or lysates may run through a third protein. Some results given as binding are weak or reduced against the parent protein; the word gives no strength. For some assays here: Where a sequence is shown, tags or fusion partners need not be part of it.

By UniProt entry, the sequences of proteins in these tests, tags left out. Where a name states a change or a piece, a line headed by the entry shows the natural chain unless it says otherwise. Residues count along the entry.
UniProt P19793: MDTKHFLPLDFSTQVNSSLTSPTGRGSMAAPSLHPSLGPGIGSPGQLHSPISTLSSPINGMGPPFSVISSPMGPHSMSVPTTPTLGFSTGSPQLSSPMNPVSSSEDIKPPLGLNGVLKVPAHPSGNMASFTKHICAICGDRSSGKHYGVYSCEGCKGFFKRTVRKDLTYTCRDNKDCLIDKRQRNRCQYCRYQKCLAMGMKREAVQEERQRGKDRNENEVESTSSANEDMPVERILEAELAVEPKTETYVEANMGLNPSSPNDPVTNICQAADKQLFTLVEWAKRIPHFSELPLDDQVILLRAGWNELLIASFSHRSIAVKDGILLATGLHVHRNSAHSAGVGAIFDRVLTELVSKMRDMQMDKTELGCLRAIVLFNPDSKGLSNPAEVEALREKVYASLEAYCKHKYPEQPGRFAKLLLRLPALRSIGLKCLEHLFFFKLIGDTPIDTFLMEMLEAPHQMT
GST-GRIP1 (GRIP1 amino acids 721-1121) (Q61026, residues 721-1121): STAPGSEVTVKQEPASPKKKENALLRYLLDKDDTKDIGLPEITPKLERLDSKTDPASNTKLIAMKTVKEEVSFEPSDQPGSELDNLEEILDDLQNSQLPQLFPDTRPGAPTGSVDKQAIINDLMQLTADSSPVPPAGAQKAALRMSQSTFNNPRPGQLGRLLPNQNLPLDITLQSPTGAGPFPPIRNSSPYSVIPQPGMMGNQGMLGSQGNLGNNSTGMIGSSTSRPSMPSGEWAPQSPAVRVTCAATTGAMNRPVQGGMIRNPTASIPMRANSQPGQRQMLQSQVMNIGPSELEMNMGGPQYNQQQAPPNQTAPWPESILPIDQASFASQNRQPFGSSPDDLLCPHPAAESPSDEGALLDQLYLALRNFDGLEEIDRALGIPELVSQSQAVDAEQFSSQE

T1: hTRβ ligand binding domain (hTRβ LBD), in vitro translated, as used in the GST-GRIP1 binding and peptide competition assays (human) (UniProt P10828)
T1 sequence ([35S]-methionine labelled (in vitro translated), looked up): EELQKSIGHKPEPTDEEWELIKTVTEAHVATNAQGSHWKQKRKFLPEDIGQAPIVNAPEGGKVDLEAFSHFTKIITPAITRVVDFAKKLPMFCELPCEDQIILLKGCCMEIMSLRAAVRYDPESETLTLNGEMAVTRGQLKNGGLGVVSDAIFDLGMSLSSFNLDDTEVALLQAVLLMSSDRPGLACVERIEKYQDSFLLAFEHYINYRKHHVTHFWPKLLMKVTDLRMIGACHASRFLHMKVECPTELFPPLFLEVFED

B1: GST-hTRβ1, full-length, wild type (receptor, human, UniProt P10828 1-461, looked up, not shown: a dimerising Fc or GST)
chain: MTPNSMTENGLTAWDKPKHCPDREHDWKLVGMSEACLHRKSHSERRSTLKNEQSSPHLIQTTWTSSIFHLDHDDVNDQSVSSAQTFQTEEKKCKGYIPSYLDKDELCVVCGDKATGYHYRCITCEGCKGFFRRTIQKNLHPSYSCKYEGKCVIDKVTRNQCQECRFKKCIYVGMATDLVLDDSKRLAKRKLIEENREKRRREELQKSIGHKPEPTDEEWELIKTVTEAHVATNAQGSHWKQKRKFLPEDIGQAPIVNAPEGGKVDLEAFSHFTKIITPAITRVVDFAKKLPMFCELPCEDQIILLKGCCMEIMSLRAAVRYDPESETLTLNGEMAVTRGQLKNGGLGVVSDAIFDLGMSLSSFNLDDTEVALLQAVLLMSSDRPGLACVERIEKYQDSFLLAFEHYINYRKHHVTHFWPKLLMKVTDLRMIGACHASRFLHMKVECPTELFPPLFLEVFED
B2: human thyroid hormone receptor β1 (hTRβ1), full-length 461 amino acids, wild type (receptor, UniProt P10828 1-461, looked up)
chain: B1 chain
modifications: [35S]-Met labelled (in vitro translated)
B3: hTRβ1 V284R, full-length (receptor, human, UniProt P10828 1-461, looked up)
chain: B1 chain with V284R
modifications: [35S]-Met labelled (in vitro translated)
B4: hTRβ1 K288A, full-length (receptor, human, UniProt P10828 1-461, looked up)
chain: B1 chain with K288A
modifications: [35S]-Met labelled (in vitro translated)
B5: hTRβ1 I302R, full-length (receptor, human, UniProt P10828 1-461, looked up)
chain: B1 chain with I302R
modifications: [35S]-Met labelled (in vitro translated)
B6: hTRβ1 K306A, full-length (receptor, human, UniProt P10828 1-461, looked up)
chain: B1 chain with K306A
modifications: [35S]-Met labelled (in vitro translated)
B7: hTRβ1 L454R, full-length (receptor, human, UniProt P10828 1-461, looked up)
chain: B1 chain with L454R
modifications: [35S]-Met labelled (in vitro translated)
B8: hTRβ1 E457K, full-length (receptor, human, UniProt P10828 1-461, looked up)
chain: B1 chain with E457K
modifications: [35S]-Met labelled (in vitro translated)
B9: hTRβ ligand binding domain (hTRβ LBD), in vitro translated, as used in the GST-GRIP1 binding and peptide competition assays (receptor, human, UniProt P10828 202-461, looked up)
chain: T1 sequence ([35S]-methionine labelled (in vitro translated), looked up)
modifications: [35S]-methionine labelled (in vitro translated)

What was measured:
[1] = biological target: T1, hTRβ ligand binding domain (hTRβ LBD), in vitro translated, as used in the GST-GRIP1 binding and peptide competition assays (human); test: GST-GRIP1 (563-767) pull-down of in vitro translated TR
[2] = biological target: hRXRα, full-length (human) (UniProt P19793); test: GST-hTRβ1 pull-down of [35S]-hRXRα
[3] = biological target: GRIP1 563-767 His6 GST fusion protein (mouse) (UniProt Q61026); test: GST-GRIP1 pull-down of in vitro translated TR
[4] = biological target: GST-GRIP1 (GRIP1 amino acids 721-1121) (mouse) (UniProt Q61026); test: GST-GRIP1 pull-down of [35S]-hTRβ1 with T3
[5] = biological target: GST-hRXRα (full-length) (human) (UniProt P19793); test: GST-RXR pull-down of TR, data not shown

Molecule	binding [5]	other results
GRIP1 563-767 His6 GST fusion protein (from UniProt Q61026 563-767)	–	binding [1]: binds
B1	–	binding [2]: binds
B2	–	binding [3]: binds; binding [4]: binds
B3	binds	–
B4	binds	–
B5	binds	–
B6	binds	–
B7	binds	–
B8	binds	–
B9	–	binding [3]: binds
